Laboratory results from US20220390432A1, “METHODS OF CHARACTERIZING AND UTILIZING AGENT-CONDENSATE INTERACTIONS” (Whitehead Institute for Biomedical Research, priority 2019, published 2022).
Results are given in words; binding and its absence hold for the method and conditions named. Some entries that bind do so weakly or less than the wild type.

By UniProt entry, the sequences of proteins in these tests, tags left out. Where a name states a change or a piece, a line headed by the entry shows the natural chain unless it says otherwise.
UniProt Q15648: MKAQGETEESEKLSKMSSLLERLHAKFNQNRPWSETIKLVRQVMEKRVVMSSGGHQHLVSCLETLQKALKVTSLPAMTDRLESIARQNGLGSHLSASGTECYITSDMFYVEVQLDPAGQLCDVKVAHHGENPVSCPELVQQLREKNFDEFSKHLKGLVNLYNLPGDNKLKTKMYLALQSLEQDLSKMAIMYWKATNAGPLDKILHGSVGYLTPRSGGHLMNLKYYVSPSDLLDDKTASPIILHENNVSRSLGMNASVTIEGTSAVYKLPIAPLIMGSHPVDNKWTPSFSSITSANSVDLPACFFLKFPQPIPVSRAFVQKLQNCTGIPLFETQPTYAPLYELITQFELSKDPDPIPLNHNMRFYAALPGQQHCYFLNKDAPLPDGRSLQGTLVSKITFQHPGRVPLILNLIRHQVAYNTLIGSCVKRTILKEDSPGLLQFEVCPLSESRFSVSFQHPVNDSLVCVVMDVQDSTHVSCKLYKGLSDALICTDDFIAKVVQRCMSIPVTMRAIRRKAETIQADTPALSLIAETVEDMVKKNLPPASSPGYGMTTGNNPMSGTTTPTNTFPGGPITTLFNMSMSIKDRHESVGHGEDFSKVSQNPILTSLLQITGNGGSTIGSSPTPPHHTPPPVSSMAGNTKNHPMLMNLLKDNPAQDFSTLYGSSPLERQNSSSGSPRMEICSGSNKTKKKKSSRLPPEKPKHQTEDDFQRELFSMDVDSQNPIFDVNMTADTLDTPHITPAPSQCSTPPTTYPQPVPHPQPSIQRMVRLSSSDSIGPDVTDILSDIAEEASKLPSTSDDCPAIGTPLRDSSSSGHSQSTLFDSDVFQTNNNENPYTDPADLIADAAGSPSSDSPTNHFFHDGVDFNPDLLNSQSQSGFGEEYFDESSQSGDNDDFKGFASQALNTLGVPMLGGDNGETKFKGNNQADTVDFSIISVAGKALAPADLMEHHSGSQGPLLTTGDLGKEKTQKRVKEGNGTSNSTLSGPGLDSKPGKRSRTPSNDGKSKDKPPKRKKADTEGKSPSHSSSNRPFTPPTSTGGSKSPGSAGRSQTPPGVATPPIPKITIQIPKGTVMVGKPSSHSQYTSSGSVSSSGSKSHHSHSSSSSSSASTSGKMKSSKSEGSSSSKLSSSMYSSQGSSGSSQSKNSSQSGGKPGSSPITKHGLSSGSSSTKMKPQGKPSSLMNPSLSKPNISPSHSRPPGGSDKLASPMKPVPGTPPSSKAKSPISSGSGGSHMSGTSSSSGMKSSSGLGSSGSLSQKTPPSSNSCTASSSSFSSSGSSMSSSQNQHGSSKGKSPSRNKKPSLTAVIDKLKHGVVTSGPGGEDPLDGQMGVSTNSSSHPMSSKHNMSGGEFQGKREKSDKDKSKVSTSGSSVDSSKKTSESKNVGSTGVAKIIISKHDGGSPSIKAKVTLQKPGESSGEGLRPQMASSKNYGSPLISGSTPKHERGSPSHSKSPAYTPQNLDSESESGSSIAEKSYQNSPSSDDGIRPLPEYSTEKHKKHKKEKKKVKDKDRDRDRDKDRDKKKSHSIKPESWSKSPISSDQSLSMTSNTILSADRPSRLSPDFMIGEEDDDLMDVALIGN
UniProt P45973: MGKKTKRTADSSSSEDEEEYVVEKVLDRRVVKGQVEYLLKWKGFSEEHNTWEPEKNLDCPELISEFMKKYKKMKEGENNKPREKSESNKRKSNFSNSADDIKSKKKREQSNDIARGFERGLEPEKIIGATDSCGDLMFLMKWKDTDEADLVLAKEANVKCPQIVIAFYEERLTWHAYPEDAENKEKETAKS
UniProt P03372: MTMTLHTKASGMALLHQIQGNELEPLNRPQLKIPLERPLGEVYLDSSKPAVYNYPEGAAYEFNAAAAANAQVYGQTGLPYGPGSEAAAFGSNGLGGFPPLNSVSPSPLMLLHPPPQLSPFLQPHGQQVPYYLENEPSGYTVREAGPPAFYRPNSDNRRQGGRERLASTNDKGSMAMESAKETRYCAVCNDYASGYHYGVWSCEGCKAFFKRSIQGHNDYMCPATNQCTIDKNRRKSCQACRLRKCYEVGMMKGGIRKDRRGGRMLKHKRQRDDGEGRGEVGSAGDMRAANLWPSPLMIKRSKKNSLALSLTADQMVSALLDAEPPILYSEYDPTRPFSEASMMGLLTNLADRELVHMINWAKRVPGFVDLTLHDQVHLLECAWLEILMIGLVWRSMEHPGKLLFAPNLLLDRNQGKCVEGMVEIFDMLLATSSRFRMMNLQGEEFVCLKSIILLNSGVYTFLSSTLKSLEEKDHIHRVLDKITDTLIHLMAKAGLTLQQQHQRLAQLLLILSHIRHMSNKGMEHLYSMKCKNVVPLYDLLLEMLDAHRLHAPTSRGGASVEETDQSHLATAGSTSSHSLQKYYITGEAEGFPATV

Assays:
[1] = target: MED1 intrinsically disordered region, amino acids 600-1581, recombinant fluorescent fusion protein (human) (UniProt Q15648); assay: in vitro droplet assay, ER partitioning into MED1 droplets
[2] = target: MED1 intrinsically disordered region, amino acids 600-1581, recombinant fluorescent fusion protein (human) (UniProt Q15648); assay: in vitro droplet assay, 10 µM each protein, 100 µM estrogen
[3] = target: MED1 intrinsically disordered region, amino acids 600-1581, recombinant fluorescent fusion protein (human) (UniProt Q15648); assay: in vitro droplet assay, confocal microscopy
[4] = target: MED1 intrinsically disordered region, amino acids 600-1581, recombinant fluorescent fusion protein (human) (UniProt Q15648); assay: in vitro droplet assay, target protein partitioning into the MED1 condensate
[5] = target: MED1 intrinsically disordered region, amino acids 600-1581, recombinant fluorescent fusion protein (human) (UniProt Q15648); assay: in vitro droplet assay with estrogen (co-condensation)
[6] = target: HP1α, full length, amino acids 1-191, recombinant fluorescent fusion protein (human) (UniProt P45973); assay: in vitro droplet assay, ER and HP1α at 10 µM

Measured: binding

Estrogen receptor (ERα), full length, amino acids 1-595, recombinant fluorescent fusion protein (from UniProt P03372 1-595)
binds: all assays above
